Test results reported in US20080122428A1, “Optimized Determination of Voltage Changes Using a Voltage-Sensitive Dye” (Max-Planck-Gesellschaft zur Forderungder Wissenschaften e. …, priority 2003, published 2008).

How the values were obtained:
[1] = tested on: Retzius cells (leech neurons); test: Two-dimensional fluorescence spectra of excitation and emission in leech neurons at defined membrane voltages (voltage clamp); format: cell-based, Hirudo medicinalis; conditions: for effective displacement of an elementary charge along the membrane normal (ΔμEG/e0) cos θ / charge displacement ΔμEG cos θ along the membrane normal: ΔVM=100 mV, dM=4 nm; for charge displacement ΔμEG cos θ along the membrane normal: fit with seven parameters
Description: The voltage sensitivity of the anellated hemicyanines ANNINE-6 and ANNINE-5 and also of BNBIQ, di-4-ANEPBS and RH-421 was investigated. Two-dimensional fluorescence spectra of excitation and emission are measured in leech neurons at defined membrane voltages. The voltage induced changes of fluorescence are parametrized in terms of changes of spectral parameters. ANNINE dyes are far more voltage sensitive than the classical styryl dyes and their sensitivity can be assigned almost completely to an identical spectral shift of excitation and emission that is caused by a molecular Stark effect.
(§1) Neurons. Ganglia of the leech Hirudo medicinalis (Moser, Schorndorf, Germany) were dissected and pinned on a Sylgard coated dish in Leibowitz-15 medium (L-5520, Sigma, Deisenhofen) with 5 mg/ml glucose, 0.3 mg/ml glutamine and 3 μg/ml gentamycin sulfate (G-3632, Sigma). After opening the tissue capsules the ganglia were incubated in dispase/collagenase (Boehringer, Mannheim, 2 mg/ml L-15 medium) for 1 hour at room temperature. Retzius cells (soma diameter 60-90 μm) were dissociated by aspiration into a firepolished micropipette and washed with Leibowitz-15 medium. The cells were seeded on an uncoated glass cover slip in a silicone chamber (Flexiperm-mikro 12, Vivascience AG, Hannover, Germany) with Leibowitz-15 medium and 2.5% fetal bovine serum (10106, Gibco, Eggenstein) and kept for one or two days at 20° C.
(§2) Staining. The dyes were solubilized in Leibowitz-15 medium with sodium cholate (Sigma, St. Luise, USA). We used 4.3 mM RH-421 with 10 mM cholate, 4.3 mM di-4-ANEPBS with 10 mM cholate, 10 mM BNBIQ with 10 mM cholate, 1 mM ANNINE-5 with 23 mM cholate and 1 mM ANNINE-6 with 25 mM cholate. After centrifugation, the staining solutions were added to the culture chambers with the neurons at a volume ratio of 1:1000 30 min before patching. The solubility of the dyes in water decreases in the series RH-421, di4-ANEPBS, BNBIQ, ANNINE-5 and ANNINE-6. In correspondence, the fluorescence intensity of cells stained with RH-421 and di-4-ANEPBS dropped after exchanging the medium by a dye-free solution due to desorption from the cells, whereas the intensity with ANNINE-5 and ANNINE-6 remained constant for at least 1.5 h.
Electrophysiology. Patch pipettes with a tip diameter of 5-10 μm were made from micro haematocrite tubes (Assistent, Karl Hecht, Sondheim/Rhön, Germany) using an all-purpose puller (DMZ-Universal Puller, Zeitz-Instrumente, Augsburg, Germany). They were filled with 140 mM KCl, 1.5 mM MgCl2, 10 mM Hepes and 10 mM EGTA, pH 7.3. The resistance of the pipettes was around 0.4 MΩ. The pipettes with Ag/AgCl electrodes were connected to a single electrode patch-clamp amplifier (SEC-10L, npi, Tamm, Germany). The patching of Retzius cells lead to a seal resistance of about 500 MΩ. Whole cell contact was achieved by breaking the membrane by suction using a water-jet vacuum pump. The bath was held at ground potential with a Ag/AgCl electrode. We kept the cells at an intracellular voltage of VM=−40 mV. The fluorescence spectra were measured at a hyperpolarized voltage of VM=−70 mV and a depolarized voltage of about VM=10 mV.
Optical setup. The spectrometer is sketched in FIG. 2. It is built on the basis of an inverted microscope (Axiovert 35, Zeiss, Oberkochen, Germany) with a high numerical aperture oil immersion objective (Neofluar 100×/1.3 oil). The light of a 75 W Xenon short arc lamp (Ushio, Hyogo, Japan) is spectrally resolved (resolution 16 nm) by a grating monochromator (J&M, Aalen, Germany). It is fed into the microscope with an optical multimode fibre (diameter 1.2 mm) and collimating optics (J&M). Nerve cell are illuminated through a dichroic mirror (AHF Analysentechnik, Tübingen, Germany) with a splitting wavelength of 520 nm for RH-421, di-4-ANEPPS, BNBIQ and ANNINE-6 and of 460 nm for ANNINE-5. The illumination is controlled by a shutter and a field diaphragm. […]

[2] = tested on: Retzius cells (leech neurons); test: Fluorescence intensity of stained neurons after exchanging the medium by a dye-free solution (desorption); format: cell-based, Hirudo medicinalis; conditions: desorption from the cells
Description: as §1
as §2, with “After centrifugation, the staining solutions were added to the culture chambers with the neurons at a volume ratio of 1:1000 30 min before patching. The solubility of the dyes in water decreases in the series RH-421, di4-ANEPBS, BNBIQ, ANNINE-5 and ANNINE-6.” left out

HEK293 cells = test: Voltage sensitivity in HEK293 cells by extracellular electric field, laser line scans with one- or two-photon excitation; format: cell-based
Description: HEK293 cells (DSMZ GmbH, Braunschweig, Germany) were cultured using standard methods on glass coverslips (diameter 24 mm, Assistent, Glaswarenfabrik Karl Hecht KG, Sondheim, Germany). The coverslips were coated with fibronectin (No. 68885, Boehringer-Mannheim, Germany) in PBS (140 mM NaCl, 2.7 mM KCl, 1.5 mM KH2PO4, 6.5 mM Na2HPO4×2H2O) by incubation for 45 min in a 10 μg/ml fibronectin solution and a single subsequent wash with PBS. The cells were plated at densities of 15000 cells per coverslip and were used for up to three days after plating, while the cell density was still low. All measurements were done in a Ringer solution containing (in mM) 135 NaCl, 5.4 KCl, 1.0 MgCl2, 1.8 CaCl2 and 5.0 Hepes, adjusted to pH 7.2 with NaOH.
ANNINE-6 (FIG. 19a) was dissolved in a solution of 20% Pluronic F-127 DMSO (P-3000, Molecular Probes, Eugene, Oreg.) at a concentration of 0.5 mg/ml and sonicated for 15 min. The glass coverslip with the HEK293 cells was taken out of the culture well, exposed to the staining solution (dye stock solution diluted 1:100 into Ringer) for 5 min and finally washed with pure Ringer solution.
To change the voltage across the cell membrane we applied an extracellular electric field. This method (Gross et al., 1986) has a somewhat reduced voltage calibration accuracy but is much simpler than whole-cell recordings, for example, permitting the transfer of the recording chamber between microscope setups thereby allowing the exploration of a wider parameter range. Our custom-made chamber (FIG. 19b) consists of a 2.6 mm wide, and 30 mm long slit in a 0.5 mm thick PMMA (Plexiglas) plate. Two chlorided silver wires (diameter 0.127 mm, Cat. No. 7860, A-M Systems, INC., Everett, Wash.) for the application of the electrical field were fixed to the long edges of the channel with two-component epoxy resin glue (plus sofortfest, UHU, Bühl, Germany). This chamber was sealed on the bottom with a clean coverslip (24 mm×50 mm) attached with silicone grease (Bayer-silicone, Bayer AG, Leverkusen, Germany). The coverslip with the stained HEK293 cells was dried around the edges to get a watertight seal with silicone grease and then mounted cells down on the top side of the chamber. Two openings allowed the continuous perfusion (about 2 ml/min) with physiological saline using a gravity-fed perfusion system.
The voltage stimuli were generated by an arbitrary waveform generator (model 395, wavetek, Ismaning, Germany) and amplified by a custom-built push-pull circuit (using two operational amplifiers, OPA547, Texas Instruments Inc., Texas, USA, FIG. 19c). To avoid electrolysis at the electrodes and ionophoresis of cell-surface components all applied voltage waveforms were purely AC. Short pulses were used to minimize heating (FIG. 19d). The application of the pulse protocol was synchronized to the start of line scan acquisition.
For one-photon excitation we used laser scanning microscopes (Zeiss LSM 510 NLO and Leica TCS SP2) with Ar-ion laser excitation (458 nm, 488 nm, or 514 nm). We used laser illumination instead of, for example, Xe arc-lamps because narrow spectral width and high intensities are needed to obtain sufficient excitation of the dye at the spectral edge. The excitation light at the Zeiss microscope was coupled in via the main dichroic beam splitters (HFT 458/514, reflecting the 458 nm and 514 nm laser lines or HFT KP 700/488, a combined 700 nm short pass and 488 nm reflector). The emitted light was filtered by a long-pass filter (LP560). The Leica microscope uses an acousto-optical main beam splitter and fluorescence was collected in the range of 520 nm to 800 nm. The maximal excitation intensities at the sample were for the Zeiss (Leica) microscope: 1.3 mW (1.5 mW) at 514 nm, 200 μW (250 μW) at 488 nm and 28 μW (35 μW) at 458 nm. The pinhole was completely opened up (8.5 airy units) to collect as much light as possible. […]

Row | Structure (SMILES) | blue shift of emission relative to blue shift of excitation ([1]; neuron membrane, positive ΔVM) | effective displacement of an elementary charge along the membrane normal (ΔμEG/e0) cos θ [1] | charge displacement ΔμEG cos θ along the membrane normal [1] | fluorescence intensity of stained cells after exchanging the medium by a dye-free solution [2] | electrochromic shift of emission compared with excitation ([1]; neuron membrane, positive ΔVM) | number of photons to detect a voltage change (HEK293 cells; 458 nm, 1 mV) | number of photons to detect a voltage change (HEK293 cells; 458 nm, voltage change of 10 mV) | number of photons to detect a voltage change (HEK293 cells; 514 nm, 1 mV) | number of photons to detect a voltage change (HEK293 cells; 514 nm, 10 mV) | deviation of response from linearity (factor) (HEK293 cells; 514 nm, +180 mV) | deviation of response from linearity (factor) (HEK293 cells; 514 nm, −180 mV) | voltage resolution in single-trial measurements (HEK293 cells; one-photon, 1 ms temporal resolution) | rms resolution of individual voltage measurements (HEK293 cells; two-photon 1040 nm, 900 line scans)
1 | CCCCN(CCCC)c1ccc2cc(C=Cc3cc[n+](CCCCS(=O)(=O)[O-])cc3)ccc2c1 [di-4-ANEPBS, reference compound] | about 50% | 0.43 nm | 21 Debye | dropped | – | – | – | – | – | – | – | – | –
2 | CCCCCN(CCCCC)c1ccc(/C=C/C=C/c2cc[n+](CCCCS(=O)(=O)[O-])cc2)cc1 [RH-421, reference compound] | – | 0.24 nm | 12 Debye | dropped | red shift of emission | – | – | – | – | – | – | – | –
3 | CCCCN(CCCC)c1ccc2c(ccc3c2ccc2c4ccc5c[n+](CCCCS(=O)(=O)[O-])ccc5c4ccc32)c1 [ANNINE-6] | – | 0.81 nm | 39 Debye | – | almost identical to those of excitation | 350 000 photons | 3500 photons | 82000 photons | 820 photons | about 0.66 | ~1.5 | about 12 mV rms | about 25 mV
4 | CCCCN(CCCC)c1ccc2c(ccc3c2ccc2c4cc[n+](CCCCS(=O)(=O)[O-])cc4ccc23)c1 [ANNINE-5] | – | 0.65 nm | 31 Debye | – | almost identical to those of excitation | – | – | – | – | – | – | – | –
